According to PMC7810945:
These are yes or no findings as the source states them, for the method shown. In cells and extracts the contact can be indirect. For some of these results: A result given as binding can be weak or reduced; the word gives no strength. For some of these results: Sequences can lack the tags named with a protein.

Chains of the proteins cited; added tags and fusions are not shown.
UniProt P10085: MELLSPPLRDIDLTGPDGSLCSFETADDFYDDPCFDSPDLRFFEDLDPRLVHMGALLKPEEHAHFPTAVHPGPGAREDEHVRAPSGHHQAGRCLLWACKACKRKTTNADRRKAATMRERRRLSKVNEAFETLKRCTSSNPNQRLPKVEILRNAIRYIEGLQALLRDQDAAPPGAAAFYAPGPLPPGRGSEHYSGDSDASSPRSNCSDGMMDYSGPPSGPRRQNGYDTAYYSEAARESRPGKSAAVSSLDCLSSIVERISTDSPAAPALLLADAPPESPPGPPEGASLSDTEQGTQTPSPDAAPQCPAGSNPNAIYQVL

What was measured:
Experiment in all cases: pull-down; GST or GST fusion proteins cross‐linked to glutathione‐agarose beads (DMP), incubated with total lysates of HEK293T cells expressing Flag‐E47; Western blot with anti‐Flag; only the target purified
[1] = target: T1, GST‐HLH‐only‐STRA8 (mouse) (UniProt P70278)
T1 sequence: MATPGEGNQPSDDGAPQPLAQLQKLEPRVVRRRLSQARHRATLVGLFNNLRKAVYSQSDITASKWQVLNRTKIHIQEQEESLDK

GST‐ΔHLH‐STRA8 (mouse) = target: T2, GST‐ΔHLH‐STRA8 (mouse) (UniProt P70278)
T2 sequence: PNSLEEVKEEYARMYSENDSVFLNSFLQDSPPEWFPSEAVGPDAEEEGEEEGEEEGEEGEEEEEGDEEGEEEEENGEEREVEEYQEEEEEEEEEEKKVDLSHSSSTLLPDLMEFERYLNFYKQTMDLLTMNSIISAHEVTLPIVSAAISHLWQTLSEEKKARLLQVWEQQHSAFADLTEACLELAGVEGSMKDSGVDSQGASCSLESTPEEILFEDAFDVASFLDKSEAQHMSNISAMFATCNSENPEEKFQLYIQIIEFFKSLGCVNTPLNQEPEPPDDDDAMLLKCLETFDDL

[2] = target: T3, GST‐STRA8 fusion protein (mouse) (UniProt P70278)
T3 sequence: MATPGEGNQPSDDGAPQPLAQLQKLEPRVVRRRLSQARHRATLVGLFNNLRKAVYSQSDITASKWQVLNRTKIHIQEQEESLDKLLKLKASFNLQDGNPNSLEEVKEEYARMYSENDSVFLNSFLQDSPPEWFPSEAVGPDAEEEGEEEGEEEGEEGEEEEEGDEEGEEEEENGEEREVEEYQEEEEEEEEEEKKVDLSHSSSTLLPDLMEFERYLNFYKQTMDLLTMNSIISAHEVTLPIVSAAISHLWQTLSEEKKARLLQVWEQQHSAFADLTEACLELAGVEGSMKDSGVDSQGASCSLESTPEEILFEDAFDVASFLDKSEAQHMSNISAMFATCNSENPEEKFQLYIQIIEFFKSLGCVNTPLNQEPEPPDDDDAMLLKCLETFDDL

GST‐MYOD fusion protein = GST‐MYOD fusion protein (UniProt P10085)

## Flag‐E47 (from UniProt P15806-2)
[1]
  binding: binds
GST‐ΔHLH‐STRA8 (mouse)
  binding: no binding
[2]
  binding: binds
GST‐MYOD fusion protein
  binding: binds
